# Where a chain is given by its changes, count along the chain named. At least one structure is not confirmed: it was looked up by name or label, or the drawing left a doubt.
# Assays:
# [1] = target: T1, PBD mutant ATP8b1 (Homo sapiens, UniProt O43520, K824A/R832A/R833A/R835A); test: Microscale Thermophoresis (MST) of Alexa-488 labeled PBD mutant ATP8b1 with PIP2 liposomes; type: binding; conditions: DOPC:PIP2 (95:5) liposomes
# T1 construct: mutant isoform of ATP8b1 (77 amino acid residues from 803-880); made in house
# T1 sequence (O43520 803-880 K824A/R832A/R833A/R835A): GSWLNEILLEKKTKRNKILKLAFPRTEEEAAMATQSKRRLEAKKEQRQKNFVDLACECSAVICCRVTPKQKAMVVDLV
# [2] = target: T2, WT ATP8b1 (Homo sapiens, UniProt O43520); test: Microscale Thermophoresis (MST) of Alexa-488 labeled WT ATP8b1 with PIP2 liposomes; type: binding; conditions: DOPC:PIP2 (95:5) liposomes
# T2 construct: mutant isoform of ATP8b1 (77 amino acid residues from 803-880); made in house
# T2 sequence (O43520 803-880): T1 sequence (O43520 803-880 K824A/R832A/R833A/R835A) with A22K, A30R, A31R, A33R
# [3] = target: T2, WT ATP8b1; test: Surface Plasmon Resonance (SPR) binding of PIP2 to immobilized WT ATP8b1 fragment; conditions: WT ATP8b1 fragment on CM5 sensor chip
# [4] = target: T1, PBD mutant ATP8b1; test: Surface Plasmon Resonance (SPR) binding of PIP2 to immobilized PBD mutant ATP8b1 fragment; conditions: PBD mutant ATP8b1 fragment (K824A, R832A, R833A, R835A) on CM5 sensor chip
# [5] = target: T3, human ATP8B1 (Homo sapiens, UniProt O43520); test: Phospholipid-stimulated ATPase activity of full-length ATP8B1; type: biochemical; conditions: concentration-dependent
# T3 sequence (O43520 1-1251): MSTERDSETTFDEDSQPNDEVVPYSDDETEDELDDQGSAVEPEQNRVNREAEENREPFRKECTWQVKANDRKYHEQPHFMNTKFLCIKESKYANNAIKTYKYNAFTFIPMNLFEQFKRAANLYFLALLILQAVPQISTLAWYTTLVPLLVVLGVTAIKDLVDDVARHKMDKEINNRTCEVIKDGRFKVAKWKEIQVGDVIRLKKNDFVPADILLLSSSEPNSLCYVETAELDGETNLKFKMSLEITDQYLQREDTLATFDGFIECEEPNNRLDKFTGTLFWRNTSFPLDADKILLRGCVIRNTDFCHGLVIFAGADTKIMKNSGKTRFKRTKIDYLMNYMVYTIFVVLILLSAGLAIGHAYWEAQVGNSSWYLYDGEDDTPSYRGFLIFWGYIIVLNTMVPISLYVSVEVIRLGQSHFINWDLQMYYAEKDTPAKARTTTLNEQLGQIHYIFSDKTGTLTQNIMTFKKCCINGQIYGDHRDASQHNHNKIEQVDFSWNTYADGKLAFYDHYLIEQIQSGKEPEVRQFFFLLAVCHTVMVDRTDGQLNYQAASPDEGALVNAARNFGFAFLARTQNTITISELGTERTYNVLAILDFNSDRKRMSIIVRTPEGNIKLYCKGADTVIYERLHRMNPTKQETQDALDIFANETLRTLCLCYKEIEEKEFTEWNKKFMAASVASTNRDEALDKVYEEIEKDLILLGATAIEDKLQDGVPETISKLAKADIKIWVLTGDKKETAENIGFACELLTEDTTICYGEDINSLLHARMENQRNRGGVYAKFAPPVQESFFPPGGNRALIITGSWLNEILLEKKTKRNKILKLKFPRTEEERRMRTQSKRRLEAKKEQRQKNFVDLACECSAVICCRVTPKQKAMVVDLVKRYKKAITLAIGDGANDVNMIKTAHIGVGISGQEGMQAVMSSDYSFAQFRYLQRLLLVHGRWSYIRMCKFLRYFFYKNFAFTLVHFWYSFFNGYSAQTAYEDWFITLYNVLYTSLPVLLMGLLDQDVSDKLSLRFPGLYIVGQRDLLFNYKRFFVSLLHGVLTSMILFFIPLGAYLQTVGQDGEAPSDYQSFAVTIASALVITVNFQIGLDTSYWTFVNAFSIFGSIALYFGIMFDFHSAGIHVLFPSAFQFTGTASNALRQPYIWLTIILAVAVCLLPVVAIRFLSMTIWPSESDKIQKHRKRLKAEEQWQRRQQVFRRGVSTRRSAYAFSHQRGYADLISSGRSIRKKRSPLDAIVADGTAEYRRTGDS
# Protocol: FIG. 8E is a bar graph showing ATPase activity of ATP8B1 in presence of various lipids (300 µM).
# FIG. 8F is a graph showing phospholipid concentration-dependent ATPase activity of ATP8B1. Graph representing data points of three independent experiments, values are mean±SD and fitted by a non-linear dose-dependent curve.
# ATP8B1 deletion may affect PIP2 translocation due to changes in membrane properties or by indirectly influencing the activity of other proteins involved in lipid trafficking. To determine if ATP8B1 can directly flip PIP2, a cell-free system was reconstituted. The GST-tagged human ATP8B1 protein was cloned in a baculovirus, followed by transduction of insect Sf9 cells, and expression was confirmed by western blot using anti-GST antibody.
# Next, we utilized reconstituted ATP8B1-proteoliposomes with NBD-labeled phospholipids and sodium dithionite quenching assay to measure phospholipid flip (FIG. 8G), as described before. A marked decrease in the fluorescence intensity of NBD-PIP2 was observed following dithionite quenching of ATP8B1 containing proteoliposomes vs. control liposomes, with ˜12% NBD-PIP2 flip in 5 min, ˜22% NBD-PIP2 flip in 30 min, and ˜27% NBD-PIP2 flipped in 60 min (FIG. 8H, 8I).
compound,measurement,setting,value
"CCCCCCCC/C=C\CCCCCCCC(=O)OC[C@H](COP(=O)(O)O[C@@H]1[C@H](O)[C@H](O)[C@@H](OP(=O)(O)O)[C@H](OP(=O)(O)O)[C@H]1O)OC(=O)CCCCCCC/C=C\CCCCCCCC [PIP2, phosphatidylinositol-4,5-bisphosphate]",Kd,[1],~29.7 µM
same,Kd,[2],~3.74 µM
same,Kd,[3],~11.5 µM
same,Kd,[4],~63.6 µM
same,EC50,[5],232 ± 35.2 µM

# Reference: US20250340885A1, “COMPOSITIONS AND METHODS FOR MODULATING CONDITIONS ASSOCIATED WITH ALTERED ATP8B1 FUNCTION” (CLEVELAND STATE UNIVERSITY, priority 2024, published 2025)
